The text below walks through data of PMC5620043, “A general mechanism of ribosome dimerization revealed by single-particle cryo-electron microscopy” (Nature Communications, 2017).

By UniProt entry, the sequences of proteins in these tests, tags left out.
UniProt A2RNV0: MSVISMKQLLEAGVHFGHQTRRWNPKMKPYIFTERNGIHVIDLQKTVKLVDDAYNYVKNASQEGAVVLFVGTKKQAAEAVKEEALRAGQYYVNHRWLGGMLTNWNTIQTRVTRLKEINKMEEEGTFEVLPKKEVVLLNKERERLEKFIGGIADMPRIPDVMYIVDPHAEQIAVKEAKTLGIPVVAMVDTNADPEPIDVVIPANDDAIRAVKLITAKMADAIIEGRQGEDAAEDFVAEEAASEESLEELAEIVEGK

In test [1] the target is ribosomal protein uS2 of the L. lactis 30S subunit (Lactococcus lactis (subsp. cremoris, MG1363)) (UniProt A2RNV0). Kind of test: cryo-EM structure; native 100S ribosome dimers from L. lactis MG1363 (sucrose gradient fractions, buffer I: 20 mM Tris-HCl pH 7.6, 15 mM magnesium acetate, 100 mM ammonium acetate, 6 mM 2-mercaptoethanol); 50S-masked map at 5.6 Å; 100S map rebuilt from two copies of it to model the interface.

Test [2] addresses hibernation promotion factor HPF^long of Lactococcus lactis, as bound in native 100S ribosomes (Lactococcus lactis (subsp. cremoris, MG1363)) (UniProt A2RIX0). The description is as above.

Results are given in words; binding and its absence hold for the method and conditions named. Some entries that bind do so weakly or less than the wild type.

B1: HPF^long from L. lactis with N-terminal Strep-tag (natural protein, UniProt A2RIX0 1-185, looked up)
chain: MIKFNIRGENVEVTDAIRAYVEDKIGKLDKYFNDGHEVTAYVNLKVYTEKRAKVEVTLPAKNVTLRAEDTSQDMYSSIDFVEEKLERQIRKYKTRMNRKPRNAVPTGQVFGDEFAPLDTTDEVAEDHVDIVRTKHVALKPMDAEEAVLQMDMLGHDFYVFTDADSNGTHVVYRRTDGRYGLIETE
notes: HPF^long of Lactococcus lactis, 185 residues, calculated monomer mass 21.3 kDa; also called purified HPF^long; source: overexpressed in L. lactis NZ9000, purified on a Strep-tactin Sepharose column
As to B1, the binding entry in test [1] and in test [2] was “binds” in each case.
